Test results from article PMC11791083.
These are yes or no findings as the source states them, for the method shown. Binding seen in cells or lysates may run through a third protein. These calls come from enrichment with a bait or labelling near it, and not all partners need be listed. For some of these results: Where a sequence is shown, tags or fusion partners need not be part of it.

Chains of the proteins cited; added tags and fusions are not shown.
UniProt Q15717: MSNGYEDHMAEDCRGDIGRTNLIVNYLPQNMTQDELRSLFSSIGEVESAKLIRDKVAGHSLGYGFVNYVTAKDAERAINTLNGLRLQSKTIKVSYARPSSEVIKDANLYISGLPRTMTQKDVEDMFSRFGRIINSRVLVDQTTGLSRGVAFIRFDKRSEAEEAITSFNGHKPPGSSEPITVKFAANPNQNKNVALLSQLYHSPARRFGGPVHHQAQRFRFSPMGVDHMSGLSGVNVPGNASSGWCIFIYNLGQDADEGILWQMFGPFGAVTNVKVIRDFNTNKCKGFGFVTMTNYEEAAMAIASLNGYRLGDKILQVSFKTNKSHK
UniProt P78527: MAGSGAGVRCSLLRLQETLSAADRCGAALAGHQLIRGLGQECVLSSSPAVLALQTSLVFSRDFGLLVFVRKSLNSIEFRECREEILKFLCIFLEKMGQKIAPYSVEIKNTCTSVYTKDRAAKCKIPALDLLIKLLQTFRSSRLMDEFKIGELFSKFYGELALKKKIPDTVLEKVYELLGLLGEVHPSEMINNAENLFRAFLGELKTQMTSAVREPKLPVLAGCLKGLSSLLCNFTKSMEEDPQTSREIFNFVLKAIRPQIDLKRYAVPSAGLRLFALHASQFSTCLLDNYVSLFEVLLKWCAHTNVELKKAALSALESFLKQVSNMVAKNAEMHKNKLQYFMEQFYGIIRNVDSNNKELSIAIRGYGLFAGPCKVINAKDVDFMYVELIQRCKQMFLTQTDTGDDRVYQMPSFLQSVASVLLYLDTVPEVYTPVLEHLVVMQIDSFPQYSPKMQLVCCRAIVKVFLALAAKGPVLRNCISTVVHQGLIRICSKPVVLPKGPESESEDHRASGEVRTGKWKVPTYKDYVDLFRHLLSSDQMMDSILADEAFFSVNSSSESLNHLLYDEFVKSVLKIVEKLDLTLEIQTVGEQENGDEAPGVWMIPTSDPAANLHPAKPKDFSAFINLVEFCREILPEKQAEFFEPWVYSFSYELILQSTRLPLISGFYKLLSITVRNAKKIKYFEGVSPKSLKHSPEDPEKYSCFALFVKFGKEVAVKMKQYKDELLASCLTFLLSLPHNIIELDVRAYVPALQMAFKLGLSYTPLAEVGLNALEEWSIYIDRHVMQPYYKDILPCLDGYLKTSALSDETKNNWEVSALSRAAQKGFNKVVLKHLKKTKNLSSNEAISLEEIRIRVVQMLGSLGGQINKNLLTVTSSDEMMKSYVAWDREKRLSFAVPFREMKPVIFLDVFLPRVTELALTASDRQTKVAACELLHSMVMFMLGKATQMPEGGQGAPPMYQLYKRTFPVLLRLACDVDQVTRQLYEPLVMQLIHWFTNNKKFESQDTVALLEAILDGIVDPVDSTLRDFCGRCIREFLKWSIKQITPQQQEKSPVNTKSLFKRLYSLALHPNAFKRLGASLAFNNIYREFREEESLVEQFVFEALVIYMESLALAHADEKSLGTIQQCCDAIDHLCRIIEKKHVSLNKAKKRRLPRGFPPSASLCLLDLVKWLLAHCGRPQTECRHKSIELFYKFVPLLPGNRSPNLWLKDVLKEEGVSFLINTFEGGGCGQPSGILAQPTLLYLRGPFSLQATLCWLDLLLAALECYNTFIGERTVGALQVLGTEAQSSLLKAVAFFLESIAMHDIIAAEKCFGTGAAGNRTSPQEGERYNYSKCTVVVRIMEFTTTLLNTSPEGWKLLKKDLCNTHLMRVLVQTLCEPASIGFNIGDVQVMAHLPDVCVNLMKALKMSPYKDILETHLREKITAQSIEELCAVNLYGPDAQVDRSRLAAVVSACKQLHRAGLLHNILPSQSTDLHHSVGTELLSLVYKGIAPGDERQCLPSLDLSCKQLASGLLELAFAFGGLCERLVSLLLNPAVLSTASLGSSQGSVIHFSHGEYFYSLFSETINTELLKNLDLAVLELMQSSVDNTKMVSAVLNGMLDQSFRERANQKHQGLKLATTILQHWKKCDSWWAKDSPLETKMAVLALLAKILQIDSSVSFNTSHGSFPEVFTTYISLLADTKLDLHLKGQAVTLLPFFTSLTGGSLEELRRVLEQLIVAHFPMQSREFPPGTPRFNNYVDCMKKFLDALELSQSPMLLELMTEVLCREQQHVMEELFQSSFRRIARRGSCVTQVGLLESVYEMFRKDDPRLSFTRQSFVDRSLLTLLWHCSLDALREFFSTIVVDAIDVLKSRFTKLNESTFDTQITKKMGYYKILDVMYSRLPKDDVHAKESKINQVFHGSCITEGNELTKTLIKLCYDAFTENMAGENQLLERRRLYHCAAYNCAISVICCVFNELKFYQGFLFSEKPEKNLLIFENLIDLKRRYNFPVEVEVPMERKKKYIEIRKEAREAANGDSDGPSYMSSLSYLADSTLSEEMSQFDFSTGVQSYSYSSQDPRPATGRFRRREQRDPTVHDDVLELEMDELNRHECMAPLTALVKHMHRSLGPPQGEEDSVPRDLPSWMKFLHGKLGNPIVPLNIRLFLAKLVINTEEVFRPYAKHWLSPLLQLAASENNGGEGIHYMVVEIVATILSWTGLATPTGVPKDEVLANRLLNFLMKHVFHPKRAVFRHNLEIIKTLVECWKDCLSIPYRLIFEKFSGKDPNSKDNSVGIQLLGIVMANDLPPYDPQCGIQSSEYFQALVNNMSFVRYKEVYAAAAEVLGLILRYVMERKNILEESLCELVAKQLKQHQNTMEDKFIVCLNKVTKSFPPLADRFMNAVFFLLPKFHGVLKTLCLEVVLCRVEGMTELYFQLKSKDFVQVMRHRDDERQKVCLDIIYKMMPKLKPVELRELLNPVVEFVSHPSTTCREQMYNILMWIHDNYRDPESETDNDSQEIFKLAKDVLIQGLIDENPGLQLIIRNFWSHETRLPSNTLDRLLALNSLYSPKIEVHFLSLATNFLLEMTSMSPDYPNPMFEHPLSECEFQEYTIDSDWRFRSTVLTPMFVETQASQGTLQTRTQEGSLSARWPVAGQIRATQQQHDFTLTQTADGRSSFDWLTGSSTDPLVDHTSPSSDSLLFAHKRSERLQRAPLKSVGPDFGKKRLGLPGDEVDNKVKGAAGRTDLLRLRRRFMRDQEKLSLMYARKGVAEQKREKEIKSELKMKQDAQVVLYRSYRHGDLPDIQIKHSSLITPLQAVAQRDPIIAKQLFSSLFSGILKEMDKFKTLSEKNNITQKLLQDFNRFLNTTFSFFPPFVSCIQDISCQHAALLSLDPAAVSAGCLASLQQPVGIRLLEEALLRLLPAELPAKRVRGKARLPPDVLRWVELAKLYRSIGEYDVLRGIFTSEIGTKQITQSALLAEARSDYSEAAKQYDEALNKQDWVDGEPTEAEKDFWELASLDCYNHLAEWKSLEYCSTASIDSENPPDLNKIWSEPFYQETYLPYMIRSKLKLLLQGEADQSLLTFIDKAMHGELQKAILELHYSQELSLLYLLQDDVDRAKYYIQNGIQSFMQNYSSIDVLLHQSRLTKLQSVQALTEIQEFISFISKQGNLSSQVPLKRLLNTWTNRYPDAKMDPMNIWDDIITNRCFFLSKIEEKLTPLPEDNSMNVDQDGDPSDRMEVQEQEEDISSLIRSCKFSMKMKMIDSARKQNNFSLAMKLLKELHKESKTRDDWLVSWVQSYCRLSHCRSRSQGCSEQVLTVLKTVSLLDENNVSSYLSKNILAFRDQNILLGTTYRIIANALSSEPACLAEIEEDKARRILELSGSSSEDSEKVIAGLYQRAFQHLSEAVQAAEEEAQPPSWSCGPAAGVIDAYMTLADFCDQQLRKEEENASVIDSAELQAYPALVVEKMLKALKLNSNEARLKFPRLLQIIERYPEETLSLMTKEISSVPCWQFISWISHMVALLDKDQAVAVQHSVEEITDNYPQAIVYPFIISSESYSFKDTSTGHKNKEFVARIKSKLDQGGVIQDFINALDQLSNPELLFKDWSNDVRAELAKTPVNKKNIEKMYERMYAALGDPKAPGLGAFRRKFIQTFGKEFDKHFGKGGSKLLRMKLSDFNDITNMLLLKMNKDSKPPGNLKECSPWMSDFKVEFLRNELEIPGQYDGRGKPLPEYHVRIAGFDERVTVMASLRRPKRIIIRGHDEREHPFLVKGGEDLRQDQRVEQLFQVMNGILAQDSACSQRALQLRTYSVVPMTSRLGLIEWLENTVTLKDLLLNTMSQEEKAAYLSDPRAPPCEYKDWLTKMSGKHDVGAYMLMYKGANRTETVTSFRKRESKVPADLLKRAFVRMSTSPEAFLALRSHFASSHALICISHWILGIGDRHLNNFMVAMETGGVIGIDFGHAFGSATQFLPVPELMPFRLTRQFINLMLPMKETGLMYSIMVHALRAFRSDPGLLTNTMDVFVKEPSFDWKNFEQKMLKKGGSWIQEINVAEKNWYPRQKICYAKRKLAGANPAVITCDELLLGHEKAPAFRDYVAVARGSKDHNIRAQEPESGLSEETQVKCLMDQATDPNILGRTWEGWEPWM
UniProt O00571: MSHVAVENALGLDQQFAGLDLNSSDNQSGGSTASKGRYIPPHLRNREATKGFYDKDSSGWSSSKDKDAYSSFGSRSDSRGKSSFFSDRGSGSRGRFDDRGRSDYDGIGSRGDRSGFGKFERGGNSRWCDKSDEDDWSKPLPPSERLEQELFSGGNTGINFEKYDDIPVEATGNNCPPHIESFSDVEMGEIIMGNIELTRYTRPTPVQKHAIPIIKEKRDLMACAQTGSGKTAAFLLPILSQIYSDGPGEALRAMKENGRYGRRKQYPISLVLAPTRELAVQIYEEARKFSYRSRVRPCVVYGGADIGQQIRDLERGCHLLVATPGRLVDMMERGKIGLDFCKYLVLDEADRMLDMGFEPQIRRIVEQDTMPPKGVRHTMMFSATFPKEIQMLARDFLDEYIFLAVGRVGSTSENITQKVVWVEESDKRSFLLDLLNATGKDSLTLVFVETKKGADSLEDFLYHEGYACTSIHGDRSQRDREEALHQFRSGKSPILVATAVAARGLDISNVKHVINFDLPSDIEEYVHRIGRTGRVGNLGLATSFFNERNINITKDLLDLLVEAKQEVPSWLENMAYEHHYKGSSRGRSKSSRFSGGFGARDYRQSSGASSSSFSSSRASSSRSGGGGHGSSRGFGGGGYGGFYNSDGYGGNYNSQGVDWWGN
UniProt O43143: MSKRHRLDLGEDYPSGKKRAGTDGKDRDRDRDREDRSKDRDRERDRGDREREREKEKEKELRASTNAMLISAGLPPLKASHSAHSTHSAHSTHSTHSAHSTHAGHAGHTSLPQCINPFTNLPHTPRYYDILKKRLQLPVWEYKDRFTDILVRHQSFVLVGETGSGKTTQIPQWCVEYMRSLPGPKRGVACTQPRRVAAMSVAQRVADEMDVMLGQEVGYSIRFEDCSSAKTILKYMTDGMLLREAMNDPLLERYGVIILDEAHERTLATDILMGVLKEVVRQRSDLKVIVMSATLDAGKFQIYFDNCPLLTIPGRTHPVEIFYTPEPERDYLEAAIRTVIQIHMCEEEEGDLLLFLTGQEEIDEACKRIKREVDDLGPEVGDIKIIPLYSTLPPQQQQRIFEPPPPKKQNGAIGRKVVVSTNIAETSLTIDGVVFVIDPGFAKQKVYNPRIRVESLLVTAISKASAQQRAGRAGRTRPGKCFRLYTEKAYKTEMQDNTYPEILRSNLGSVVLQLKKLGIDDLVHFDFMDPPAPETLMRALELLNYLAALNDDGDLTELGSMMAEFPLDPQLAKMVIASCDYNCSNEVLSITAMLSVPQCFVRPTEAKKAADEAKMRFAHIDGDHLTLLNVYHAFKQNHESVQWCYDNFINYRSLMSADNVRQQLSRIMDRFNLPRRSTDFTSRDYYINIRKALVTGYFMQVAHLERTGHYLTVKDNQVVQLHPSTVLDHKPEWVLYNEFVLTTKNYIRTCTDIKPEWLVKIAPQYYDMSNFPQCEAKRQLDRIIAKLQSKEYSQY

T1: heterogeneous nuclear ribonucleoprotein M, C-terminally GFP-tagged (hnRNPM-GFP) (human) (UniProt P52272)
T1 sequence: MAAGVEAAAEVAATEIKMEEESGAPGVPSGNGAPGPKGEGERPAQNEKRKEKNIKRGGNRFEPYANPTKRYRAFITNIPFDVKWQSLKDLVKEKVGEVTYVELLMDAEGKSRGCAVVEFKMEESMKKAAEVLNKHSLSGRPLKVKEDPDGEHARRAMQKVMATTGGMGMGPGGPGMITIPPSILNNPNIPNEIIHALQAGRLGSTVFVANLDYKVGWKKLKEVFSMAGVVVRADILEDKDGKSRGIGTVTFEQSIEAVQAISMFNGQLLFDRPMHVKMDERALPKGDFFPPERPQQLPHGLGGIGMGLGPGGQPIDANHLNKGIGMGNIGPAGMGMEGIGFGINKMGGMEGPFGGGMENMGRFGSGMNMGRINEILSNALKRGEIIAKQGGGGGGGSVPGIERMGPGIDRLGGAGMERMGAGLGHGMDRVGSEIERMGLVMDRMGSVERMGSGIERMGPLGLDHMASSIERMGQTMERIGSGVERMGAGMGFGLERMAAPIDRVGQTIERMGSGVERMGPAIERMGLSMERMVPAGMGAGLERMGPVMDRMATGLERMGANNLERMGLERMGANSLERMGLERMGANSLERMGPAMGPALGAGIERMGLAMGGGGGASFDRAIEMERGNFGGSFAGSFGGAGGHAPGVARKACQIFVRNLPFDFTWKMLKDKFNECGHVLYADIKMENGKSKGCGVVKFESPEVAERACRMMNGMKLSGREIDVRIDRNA

B1: IκB kinase β (IKKβ), endogenous in THP-1 (protein, UniProt O14920 1-756)
chain: MSWSPSLTTQTCGAWEMKERLGTGGFGNVIRWHNQETGEQIAIKQCRQELSPRNRERWCLEIQIMRRLTHPNVVAARDVPEGMQNLAPNDLPLLAMEYCQGGDLRKYLNQFENCCGLREGAILTLLSDIASALRYLHENRIIHRDLKPENIVLQQGEQRLIHKIIDLGYAKELDQGSLCTSFVGTLQYLAPELLEQQKYTVTVDYWSFGTLAFECITGFRPFLPNWQPVQWHSKVRQKSEVDIVVSEDLNGTVKFSSSLPYPNNLNSVLAERLEKWLQLMLMWHPRQRGTDPTYGPNGCFKALDDILNLKLVHILNMVTGTIHTYPVTEDESLQSLKARIQQDTGIPEEDQELLQEAGLALIPDKPATQCISDGKLNEGHTLDMDLVFLFDNSKITYETQISPRPQPESVSCILQEPKRNLAFFQLRKVWGQVWHSIQTLKEDCNRLQQGQRAAMMNLLRNNSCLSKMKNSMASMSQQLKAKLDFFKTSIQIDLEKYSEQTEFGITSDKLLLAWREMEQAVELCGRENEVKLLVERMMALQTDIVDLQRSPMGRKQGGTLDDLEEQARELYRRLREKPRDQRTEGDSQEMVRLLLQAIQSFEKKVRVIYTQLSKTVVCKQKALELLPKVEEVVSLMNEDEKTVVRLQEKRQKELWNLLKIACSKVRGPVSGSPDSMNASRLSQPGQLMSQPSTASNSLPEPAKKSEELVAEAHNLCTLLENAIQDTVREQDQSFTALDWSWLQTEEEEHSCLEQAS
B2: heterogeneous nuclear ribonucleoprotein M (hnRNPM), endogenous in THP-1 (protein, UniProt P52272 1-730)
chain: T1 sequence

Tests used:
[1] = biological target: T1, heterogeneous nuclear ribonucleoprotein M, C-terminally GFP-tagged (hnRNPM-GFP) (human); assay: affinity purification with mass spectrometry; GFP-Trap magnetic agarose on lysates of non-stimulated THP-1 cells expressing hnRNPM-GFP, ELAVL1-GFP or GFP (control); TAP lysis buffer (100 mM NaCl, 50 mM Tris/HCl, 1.5 mM MgCl2, 5% glycerol, 0.5% IGEPAL CA-630, pH 7.5), 4 °C overnight; LC-MS/MS, enrichment against GFP
[2] = biological target: ELAV-like protein 1, GFP-tagged (ELAVL1-GFP) (human) (UniProt Q15717); assay: as above

Molecule	binding [1]	binding [2]
ELAV-like protein 1 (ELAVL1), endogenous in THP-1 (from UniProt Q15717 1-326)	binds	–
DNA-dependent protein kinase catalytic subunit (PRKDC), endogenous in THP-1 (from UniProt P78527 1-4128)	binds	–
DEAD-box helicase 3 X-linked (DDX3X), endogenous in THP-1 (from UniProt O00571 1-662)	binds	–
zinc finger CCCH-type antiviral protein 1 (ZC3HAV1), endogenous in THP-1 (from UniProt Q7Z2W4 1-902)	binds	–
pre-mRNA-splicing factor ATP-dependent RNA helicase DHX15 (DHX15), endogenous in THP-1 (from UniProt O43143 1-795)	binds	–
B1	binds	–
B2	–	binds
